The other results are listed elsewhere or left out. Small differences around the control level are noise.

Amino acid sequences for entries named in this document (tags omitted). A change or cut given only in a name is not applied to a line headed by its entry.
UniProt P53618: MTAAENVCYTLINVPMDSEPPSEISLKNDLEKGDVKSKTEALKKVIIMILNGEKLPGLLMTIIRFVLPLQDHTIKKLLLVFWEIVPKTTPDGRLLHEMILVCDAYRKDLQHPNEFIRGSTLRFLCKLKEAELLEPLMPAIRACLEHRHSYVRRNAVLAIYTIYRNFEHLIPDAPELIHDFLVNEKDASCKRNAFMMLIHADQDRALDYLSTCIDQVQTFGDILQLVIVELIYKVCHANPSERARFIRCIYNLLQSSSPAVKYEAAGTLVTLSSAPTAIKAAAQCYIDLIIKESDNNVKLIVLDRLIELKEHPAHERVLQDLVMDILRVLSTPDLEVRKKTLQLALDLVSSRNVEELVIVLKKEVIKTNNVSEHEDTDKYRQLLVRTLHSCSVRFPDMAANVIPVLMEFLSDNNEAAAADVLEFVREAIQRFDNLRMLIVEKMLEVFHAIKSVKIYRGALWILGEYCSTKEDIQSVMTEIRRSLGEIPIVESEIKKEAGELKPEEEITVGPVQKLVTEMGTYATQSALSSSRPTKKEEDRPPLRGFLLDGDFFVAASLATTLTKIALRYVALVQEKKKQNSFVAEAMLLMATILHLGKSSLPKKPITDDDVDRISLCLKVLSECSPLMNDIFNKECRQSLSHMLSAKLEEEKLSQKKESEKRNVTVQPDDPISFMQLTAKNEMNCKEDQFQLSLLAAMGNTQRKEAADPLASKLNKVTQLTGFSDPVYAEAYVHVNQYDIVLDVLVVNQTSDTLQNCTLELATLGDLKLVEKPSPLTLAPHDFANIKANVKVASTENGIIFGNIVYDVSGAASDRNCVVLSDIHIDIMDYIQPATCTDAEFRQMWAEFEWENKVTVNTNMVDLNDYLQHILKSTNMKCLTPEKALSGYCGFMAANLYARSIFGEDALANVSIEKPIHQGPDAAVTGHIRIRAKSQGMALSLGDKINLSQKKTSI
UniProt P50552: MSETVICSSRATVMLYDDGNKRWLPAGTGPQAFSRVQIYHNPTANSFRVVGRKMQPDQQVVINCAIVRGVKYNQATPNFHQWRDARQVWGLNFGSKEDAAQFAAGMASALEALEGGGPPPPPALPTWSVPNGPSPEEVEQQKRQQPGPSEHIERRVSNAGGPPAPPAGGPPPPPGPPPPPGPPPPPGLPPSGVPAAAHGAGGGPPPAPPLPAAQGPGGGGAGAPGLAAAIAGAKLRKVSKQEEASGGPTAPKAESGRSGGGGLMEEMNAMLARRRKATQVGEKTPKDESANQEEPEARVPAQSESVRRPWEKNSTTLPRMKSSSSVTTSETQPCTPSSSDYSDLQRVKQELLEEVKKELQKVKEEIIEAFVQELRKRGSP
UniProt P49915: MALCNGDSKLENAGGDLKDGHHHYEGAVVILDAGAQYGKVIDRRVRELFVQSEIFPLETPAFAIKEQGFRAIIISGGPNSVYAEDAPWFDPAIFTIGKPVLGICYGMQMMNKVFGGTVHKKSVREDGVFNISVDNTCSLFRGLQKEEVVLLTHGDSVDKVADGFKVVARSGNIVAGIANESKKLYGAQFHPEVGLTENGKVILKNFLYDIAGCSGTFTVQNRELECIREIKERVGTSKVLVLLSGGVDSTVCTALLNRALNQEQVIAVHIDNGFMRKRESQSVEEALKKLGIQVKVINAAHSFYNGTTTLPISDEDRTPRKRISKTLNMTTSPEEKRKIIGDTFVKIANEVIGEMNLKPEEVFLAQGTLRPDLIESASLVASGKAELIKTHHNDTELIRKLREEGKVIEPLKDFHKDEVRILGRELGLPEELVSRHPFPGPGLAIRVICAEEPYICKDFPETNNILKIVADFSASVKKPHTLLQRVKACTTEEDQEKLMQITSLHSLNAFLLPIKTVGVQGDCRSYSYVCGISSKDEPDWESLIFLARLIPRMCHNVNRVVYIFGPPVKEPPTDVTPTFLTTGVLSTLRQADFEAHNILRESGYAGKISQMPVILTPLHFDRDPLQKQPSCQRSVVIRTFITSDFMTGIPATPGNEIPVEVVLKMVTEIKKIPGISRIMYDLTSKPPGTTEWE
UniProt P51572: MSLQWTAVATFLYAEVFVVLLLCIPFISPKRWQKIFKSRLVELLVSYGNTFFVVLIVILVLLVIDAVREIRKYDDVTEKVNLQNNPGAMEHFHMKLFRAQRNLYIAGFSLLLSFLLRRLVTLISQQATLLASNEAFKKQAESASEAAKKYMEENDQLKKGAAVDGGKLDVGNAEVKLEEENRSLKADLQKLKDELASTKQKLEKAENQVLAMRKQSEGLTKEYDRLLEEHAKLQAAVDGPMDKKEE
UniProt P49821, whole entry: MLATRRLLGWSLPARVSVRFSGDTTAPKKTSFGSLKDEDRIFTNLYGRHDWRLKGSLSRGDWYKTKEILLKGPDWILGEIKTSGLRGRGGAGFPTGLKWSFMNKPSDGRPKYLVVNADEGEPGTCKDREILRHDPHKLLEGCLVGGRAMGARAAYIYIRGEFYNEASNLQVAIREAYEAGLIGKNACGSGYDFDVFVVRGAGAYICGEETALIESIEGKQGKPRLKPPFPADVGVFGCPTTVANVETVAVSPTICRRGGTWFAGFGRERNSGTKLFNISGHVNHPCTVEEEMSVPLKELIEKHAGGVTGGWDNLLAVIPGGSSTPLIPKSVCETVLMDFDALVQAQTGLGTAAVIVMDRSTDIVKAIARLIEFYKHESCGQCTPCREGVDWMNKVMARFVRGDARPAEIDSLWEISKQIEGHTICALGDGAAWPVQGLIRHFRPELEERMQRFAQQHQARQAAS
UniProt P48059, whole entry: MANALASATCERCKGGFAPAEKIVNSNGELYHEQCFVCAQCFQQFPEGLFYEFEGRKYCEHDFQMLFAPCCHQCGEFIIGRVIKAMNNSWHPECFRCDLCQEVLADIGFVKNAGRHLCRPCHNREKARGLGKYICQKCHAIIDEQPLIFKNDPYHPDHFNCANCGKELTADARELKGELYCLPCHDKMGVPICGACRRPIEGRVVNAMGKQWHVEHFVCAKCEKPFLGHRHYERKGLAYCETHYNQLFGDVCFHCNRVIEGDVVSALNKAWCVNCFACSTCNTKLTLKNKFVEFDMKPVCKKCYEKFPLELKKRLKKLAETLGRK
UniProt P46063: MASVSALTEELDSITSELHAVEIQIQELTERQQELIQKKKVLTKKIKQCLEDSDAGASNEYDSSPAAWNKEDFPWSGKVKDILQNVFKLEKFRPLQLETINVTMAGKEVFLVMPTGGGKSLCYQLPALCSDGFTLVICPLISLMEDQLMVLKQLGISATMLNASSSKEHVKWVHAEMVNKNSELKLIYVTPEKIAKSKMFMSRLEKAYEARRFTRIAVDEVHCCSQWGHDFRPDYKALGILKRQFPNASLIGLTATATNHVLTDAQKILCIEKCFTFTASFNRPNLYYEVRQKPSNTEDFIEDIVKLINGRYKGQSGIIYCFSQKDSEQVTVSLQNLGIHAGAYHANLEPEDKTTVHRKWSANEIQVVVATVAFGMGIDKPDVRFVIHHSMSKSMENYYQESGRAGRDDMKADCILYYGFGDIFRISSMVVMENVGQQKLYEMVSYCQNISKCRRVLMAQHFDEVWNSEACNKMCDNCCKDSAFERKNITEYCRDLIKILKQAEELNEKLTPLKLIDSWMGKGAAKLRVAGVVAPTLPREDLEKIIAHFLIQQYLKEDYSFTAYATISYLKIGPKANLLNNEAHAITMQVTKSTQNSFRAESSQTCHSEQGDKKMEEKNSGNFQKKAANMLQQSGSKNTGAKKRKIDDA
UniProt P46459: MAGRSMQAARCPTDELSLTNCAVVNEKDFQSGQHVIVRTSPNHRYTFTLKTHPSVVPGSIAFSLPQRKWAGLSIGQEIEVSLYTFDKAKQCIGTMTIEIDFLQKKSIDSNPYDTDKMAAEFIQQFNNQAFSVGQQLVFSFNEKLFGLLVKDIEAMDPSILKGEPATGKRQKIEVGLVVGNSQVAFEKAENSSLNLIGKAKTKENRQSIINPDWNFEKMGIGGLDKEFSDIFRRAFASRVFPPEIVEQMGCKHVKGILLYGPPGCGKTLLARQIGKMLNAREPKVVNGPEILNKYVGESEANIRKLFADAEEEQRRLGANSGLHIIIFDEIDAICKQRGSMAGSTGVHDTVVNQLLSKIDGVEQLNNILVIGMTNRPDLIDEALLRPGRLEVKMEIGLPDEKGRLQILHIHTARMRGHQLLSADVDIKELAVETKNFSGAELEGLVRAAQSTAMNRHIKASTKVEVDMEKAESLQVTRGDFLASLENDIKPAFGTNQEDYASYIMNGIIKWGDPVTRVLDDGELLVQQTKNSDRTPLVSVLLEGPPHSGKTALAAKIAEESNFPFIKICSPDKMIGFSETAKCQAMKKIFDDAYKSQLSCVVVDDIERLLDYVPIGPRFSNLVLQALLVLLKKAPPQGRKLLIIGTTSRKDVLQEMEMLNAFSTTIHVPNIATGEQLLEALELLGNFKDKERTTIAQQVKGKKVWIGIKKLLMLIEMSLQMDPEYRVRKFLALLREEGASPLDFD
UniProt P49754: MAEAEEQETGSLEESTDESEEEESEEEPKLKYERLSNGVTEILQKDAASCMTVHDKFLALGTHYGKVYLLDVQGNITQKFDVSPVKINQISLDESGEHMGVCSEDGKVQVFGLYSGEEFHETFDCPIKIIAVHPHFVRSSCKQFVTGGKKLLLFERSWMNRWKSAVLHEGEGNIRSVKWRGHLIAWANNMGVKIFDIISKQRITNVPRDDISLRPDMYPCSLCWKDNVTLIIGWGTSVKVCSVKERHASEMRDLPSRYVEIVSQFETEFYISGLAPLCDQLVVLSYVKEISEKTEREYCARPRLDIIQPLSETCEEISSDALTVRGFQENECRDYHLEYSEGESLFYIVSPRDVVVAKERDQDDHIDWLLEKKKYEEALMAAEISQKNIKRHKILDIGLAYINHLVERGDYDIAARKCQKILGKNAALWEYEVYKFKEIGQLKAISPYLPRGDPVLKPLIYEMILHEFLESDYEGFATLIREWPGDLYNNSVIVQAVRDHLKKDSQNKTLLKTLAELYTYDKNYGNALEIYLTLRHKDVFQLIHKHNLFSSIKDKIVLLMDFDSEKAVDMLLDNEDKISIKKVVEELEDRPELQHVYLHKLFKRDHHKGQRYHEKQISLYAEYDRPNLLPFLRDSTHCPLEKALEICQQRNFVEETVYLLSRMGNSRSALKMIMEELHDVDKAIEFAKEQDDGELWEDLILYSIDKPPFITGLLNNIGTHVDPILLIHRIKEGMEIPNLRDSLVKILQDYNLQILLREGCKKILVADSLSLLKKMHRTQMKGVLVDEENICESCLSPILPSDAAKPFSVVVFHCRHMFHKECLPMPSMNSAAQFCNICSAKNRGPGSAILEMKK
UniProt P51153: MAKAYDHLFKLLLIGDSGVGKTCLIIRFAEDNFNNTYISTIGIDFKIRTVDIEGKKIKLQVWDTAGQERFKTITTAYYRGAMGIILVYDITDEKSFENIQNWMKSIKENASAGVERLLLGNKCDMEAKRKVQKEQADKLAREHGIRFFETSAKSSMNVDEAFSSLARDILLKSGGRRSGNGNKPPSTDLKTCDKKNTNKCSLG
UniProt P48444: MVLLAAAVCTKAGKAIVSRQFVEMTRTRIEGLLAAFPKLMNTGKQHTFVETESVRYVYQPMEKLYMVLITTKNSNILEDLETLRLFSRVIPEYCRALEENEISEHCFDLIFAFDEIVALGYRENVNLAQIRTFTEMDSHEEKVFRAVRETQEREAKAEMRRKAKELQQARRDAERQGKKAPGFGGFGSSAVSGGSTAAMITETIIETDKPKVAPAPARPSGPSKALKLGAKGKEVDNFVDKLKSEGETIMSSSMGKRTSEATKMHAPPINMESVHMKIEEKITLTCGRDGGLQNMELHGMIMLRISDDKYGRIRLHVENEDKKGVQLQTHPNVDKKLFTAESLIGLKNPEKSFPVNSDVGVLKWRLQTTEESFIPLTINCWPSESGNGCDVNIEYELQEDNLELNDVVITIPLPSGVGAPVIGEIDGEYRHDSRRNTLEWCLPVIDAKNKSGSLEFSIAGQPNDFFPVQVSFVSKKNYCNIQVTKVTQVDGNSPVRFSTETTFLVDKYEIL
UniProt P48454, whole entry: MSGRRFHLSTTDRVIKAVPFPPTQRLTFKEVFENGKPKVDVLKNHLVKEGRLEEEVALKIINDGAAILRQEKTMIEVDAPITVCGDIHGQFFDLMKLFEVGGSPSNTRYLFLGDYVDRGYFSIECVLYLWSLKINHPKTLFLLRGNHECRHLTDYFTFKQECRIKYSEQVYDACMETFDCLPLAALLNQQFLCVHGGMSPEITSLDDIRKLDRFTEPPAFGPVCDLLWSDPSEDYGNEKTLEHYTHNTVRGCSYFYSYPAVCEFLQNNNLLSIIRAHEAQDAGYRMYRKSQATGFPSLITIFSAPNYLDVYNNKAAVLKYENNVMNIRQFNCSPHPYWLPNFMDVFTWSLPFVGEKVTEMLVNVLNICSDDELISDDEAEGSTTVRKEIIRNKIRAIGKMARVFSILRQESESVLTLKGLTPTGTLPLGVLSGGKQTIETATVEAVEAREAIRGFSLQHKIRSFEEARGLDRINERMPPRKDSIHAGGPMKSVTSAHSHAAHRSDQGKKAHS

Compound in this test: Cc1nc(Nc2ncc(C(=O)Nc3c(C)cccc3Cl)s2)cc(N2CCN(CCO)CC2)n1 [dasatinib]
The test can be described thus: log2 fold change of tryptic peptide abundance, ligand vs vehicle (limited proteolysis) (log2 ratio); higher = more trypsin-susceptible (destabilized). To be noted: ligand concentration: 5 uM; sample: K562 cleared lysate.
In the case of “RPL27A (peptide sequence: TGAAPIIDVVR, peptide start residue: 95) (UniProt P46776)”, the log2 fold change was -0.0527. Next, “RPS10 (peptide sequence: RSAVPPGADKK, peptide start residue: 129) (UniProt P46783)”: 0.0974; “COPB1 (peptide sequence: NDLEKGDVK, peptide start residue: 28) (UniProt P53618)”: -0.376. In the case of “VASP (peptide sequence: VKQELLEEVKK, peptide start residue: 347) (UniProt P50552)”, the log2 fold change turned out to be 0.131. Next, “GMPS (peptide sequence: THHNDTELIR, peptide start residue: 390) (UniProt P49915)”: -0.208. “TRAPPC10 (peptide sequence: CVVLSDPLKDSSR, peptide start residue: 162) (UniProt P48553)”: the log2 fold change came out at 0.198. In the case of “CLCN7 (peptide sequence: DRDDEEAAPLLR, peptide start residue: 14) (UniProt P51798)”, the log2 fold change was 0.0993. “BCAP31 (peptide sequence: LQAAVDGPMDKKEE, peptide start residue: 233) (UniProt P51572)”: the log2 fold change was -0.297.

Turning to “CDKN1B (peptide sequence: QAEHPKPSACR, peptide start residue: 20) (UniProt P46527)”, the log2 fold change is -0.345. In the case of “PRIM2 (peptide sequence: KEPIQPETPQPK, peptide start residue: 463) (UniProt P49643)”, the log2 fold change was -0.426. Next, “AP3M2 (peptide sequence: ELIKPPTILR, peptide start residue: 132) (UniProt P53677)”: -0.137. “PPM1F (peptide sequence: LMEPHRPERQDEK, peptide start residue: 288) (UniProt P49593)”: the log2 fold change is -0.115.

Turning to “NDUFV1 (peptide sequence: GGAGFPTGLK, peptide start residue: 89) (UniProt P49821)”, the log2 fold change stood at 0.309. Regarding “LIMS1 (peptide sequence: AMNNSWHPECFR, peptide start residue: 85) (UniProt P48059)”, the log2 fold change is -0.196. Next, “RECQL (peptide sequence: IIAHFLIQQYLK, peptide start residue: 545) (UniProt P46063)”: -0.282. Next, “NSF (peptide sequence: MGIGGLDKEFSDIFRR, peptide start residue: 218) (UniProt P46459)”: 0.14; “ALDH1A3 (peptide sequence: IAFTGSTEVGK, peptide start residue: 259) (UniProt P47895)”: -0.000271. On to “FASN (peptide sequence: AINCATSGVVGLVNCLRR, peptide start residue: 1445) (UniProt P49327)”, for which the log2 fold change was -0.632.

Turning to “METAP2 (peptide sequence: SALEDKERDEDDEDGDGDGDGATGK, peptide start residue: 74) (UniProt P50579)”, the log2 fold change is 0.0999. Next, “VPS41 (peptide sequence: EGMEIPNLR, peptide start residue: 732) (UniProt P49754)”: 0.144. Next, “RAB13 (peptide sequence: RSGNGNKPPSTDLK, peptide start residue: 177) (UniProt P51153)”: 0.477; “ARCN1 (peptide sequence: ISDDKYGR, peptide start residue: 305) (UniProt P48444)”: -0.342; “GALK1 (peptide sequence: EVQLEELEAAR, peptide start residue: 257) (UniProt P51570)”: 0.132. Turning to “INPP1 (peptide sequence: IFGAAGAGYK, peptide start residue: 284) (UniProt P49441)”, the log2 fold change worked out at 0.161.

For “GCLM (peptide sequence: IVAIGTSDLDK, peptide start residue: 159) (UniProt P48507)”, the log2 fold change came out at 0.194. Next, “AKR1D1 (peptide sequence: SLGVSNFNRR, peptide start residue: 165) (UniProt P51857)”: 0.0671; “DUSP3 (peptide sequence: AADFIDQALAQK, peptide start residue: 105) (UniProt P51452)”: -0.103; “LSS (peptide sequence: WYVDGPASTAFQEHVSR, peptide start residue: 348) (UniProt P48449)”: 0.0832. On to “PPP3CC (peptide sequence: KDSIHAGGPMK, peptide start residue: 481) (UniProt P48454)”, for which the log2 fold change is 0.309. Take “TMED10 (peptide sequence: ITDSAGHILYSKEDATK, peptide start residue: 76) (UniProt P49755)”: the log2 fold change is 0.635. Regarding “ANXA11 (peptide sequence: KTLEEAIR, peptide start residue: 320) (UniProt P50995)”, the log2 fold change was -0.466. Take “RPL28 (peptide sequence: SQKPVMVKR, peptide start residue: 120) (UniProt P46779)”: the log2 fold change is -0.0967. Next, “NUDT2 (peptide sequence: ACGLIIFR, peptide start residue: 5) (UniProt P50583)”: -0.0629. Next, “UniProt P53990 (peptide sequence: KEIADYLAAGKDER, peptide start residue: 38)”: -0.14; “RCAN1 (peptide sequence: TYDKDITFQYFK, peptide start residue: 93) (UniProt P53805)”: 0.107; “NEK4 (peptide sequence: VAEEAEEIHFK, peptide start residue: 752) (UniProt P51957)”: -0.601. Next, “SMARCA4 (peptide sequence: RLLLTGTPLQNK, peptide start residue: 906) (UniProt P51532)”: -0.393.

Values taken from the supplement of paper PMC12819154, “High-throughput peptide-centric local stability assay extends protein–ligand identification to membrane proteins, tissues and bacteria” (Nature Structural & Molecular Biology, 2025).
